This assay has as its system HeLa cells. As to the kind of experiment: Purinosome dynamics DMR screen, sequential order molecule, DMAT, TBB. The assay is classed as cell-based, human. An excerpt: A library of agonists for various different GPCRs were used to individually pretreat a confluent layer of Hela cells for about one hour, before sequential stimulation with DMAT and TBB, respectively. The responses were monitored using Epic® system.
A library of molecules targeting endogenous alpha2A and beta2 adrenergic receptors were used to individually pretreat a confluent layer of Hela cells for about one hour, before sequential stimulation with DMAT and TBB, respectively. The responses were monitored using Epic® system.
Epic® wavelength interrogation system (Corning Inc., Corning, N.Y.) was used for whole cell sensing. This system consists of a temperature-control unit, an optical detection unit, and an on-board liquid handling unit with robotics. […]
For biosensor cellular assays, compound solutions were made by diluting the stored concentrated solutions with the HBSS (1× Hanks balanced salt solution, plus 20 mM Hepes, pH 7.1), and transferred into a 384 well polypropylene compound storage plate to prepare a compound source plate. […] Both the cell assay plate and the compound source plate(s) were then incubated in the hotel of the reader system. After incubation the baseline wavelengths of all biosensors in the cell assay microplate were recorded and normalized to zero. […]

Turning to `COc1ccc(CC(C)NCC(O)c2ccc(O)c(NC=O)c2)cc1` (stereo not shown) [formoterol], the “modulation of the DMAT signal” value is reported as “specifically suppress”.
